PubChem BioAssay AID1259308 – NCATS – 2017
In all, the deposit lists about 59,000 reagents; shown is a random part of them. About 1,510 of them (2.6%) were called active. 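Calls use total luciferase alone and ignore viability, so some active siRNAs may act by altering cell number.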 Reagents against one gene are numbered here. Further read-outs or replicates are left out here. Reagent sequences are not shown.

- Assay: 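Candidate targets for better recombinant protein yield in mammalian cells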 (primary screen)
- System: human HEK293 embryonic kidney cells stably expressing firefly luciferase (HEK-CMV-Luc2-Hygro)
- Reagents: single siRNA against human genes, 0.8 pmol siRNA per well
- Duration: 72 h
- Read-out: 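Reporter luminescence and viable-cell signal on separate replicate plates, given as percent of non-targeting control and median/MAD z-scores, plus per-cell luciferase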
- Scale: total luciferase, z-score: higher = more reporter protein produced
- Active means: 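An siRNA counts as active if its total luciferase robust z-score exceeds 3; genes with two or more such siRNAs out of three were retested with fresh siRNAs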
- Calls: active = raised luciferase; inactive = no rise

What did the screen give for TTC23L (GeneID 153657) #1?
total luciferase, z-score: -0.344; outcome: inactive

With TTC23L (GeneID 153657) #2, what was measured?
total luciferase, z-score: 0.664; outcome: inactive

What is on record for TTC23L (GeneID 153657) #3?
total luciferase, z-score: -0.488; outcome: inactive

What is on record for CREBRF (GeneID 153222) #1?
total luciferase, z-score: -0.863; outcome: inactive

With CREBRF (GeneID 153222) #2, what was measured?
total luciferase, z-score: -0.641; outcome: inactive

Which result is listed for CREBRF (GeneID 153222) #3?
total luciferase, z-score: 0.0939; outcome: inactive

What is on record for ZNF518B (GeneID 85460) #1?
total luciferase, z-score: 0.395; outcome: inactive

What did the screen give for ZNF518B (GeneID 85460) #2?
total luciferase, z-score: -0.648; outcome: inactive

What is on record for ZNF518B (GeneID 85460) #3?
total luciferase, z-score: -0.161; outcome: inactive

Laid out differently: entries from further up.
{"target gene": "TTC23L (GeneID 153657)", "siRNA no.": 1, "total luciferase, z-score": -0.344, "outcome": "inactive"}
{"target gene": "TTC23L (GeneID 153657)", "siRNA no.": 2, "total luciferase, z-score": 0.664, "outcome": "inactive"}
{"target gene": "TTC23L (GeneID 153657)", "siRNA no.": 3, "total luciferase, z-score": -0.488, "outcome": "inactive"}

Next entries:
What is on record for MUC3B (GeneID 57876) #1?
total luciferase, z-score: 1.84; outcome: inactive

Which result is listed for MUC3B (GeneID 57876) #2?
total luciferase, z-score: -1.14; outcome: inactive

What did the screen give for MUC3B (GeneID 57876) #3?
total luciferase, z-score: 0.31; outcome: inactive

What did the screen give for MUC3B (GeneID 57876) #4?
total luciferase, z-score: -1.08; outcome: inactive

How did the screen score MUC3B (GeneID 57876) #5?
total luciferase, z-score: -0.94; outcome: inactive

What is on record for MUC3B (GeneID 57876) #6?
total luciferase, z-score: 1.51; outcome: inactive

With ZNF790 (GeneID 388536) #1, how do the results read?
total luciferase, z-score: -1.45; outcome: inactive

With ZNF790 (GeneID 388536) #2, how do the results read?
total luciferase, z-score: -0.667; outcome: inactive

Which result is listed for ZNF790 (GeneID 388536) #3?
total luciferase, z-score: -0.839; outcome: inactive

With DEDD (GeneID 9191) #1, what was measured?
total luciferase, z-score: 0.297; outcome: inactive

How did the screen score DEDD (GeneID 9191) #2?
total luciferase, z-score: 0.192; outcome: inactive

With DEDD (GeneID 9191) #3, what does the deposit list?
total luciferase, z-score: -1.8; outcome: inactive
